Reference: the supplement of paper PMC10849652
The other results are listed elsewhere or left out.

Protein sequences, listed by entry. Tags and fused reporters are not part of them. Lines headed by an entry give the natural chain unless they say otherwise; changes in a name come on top.
UniProt Q6ICL3: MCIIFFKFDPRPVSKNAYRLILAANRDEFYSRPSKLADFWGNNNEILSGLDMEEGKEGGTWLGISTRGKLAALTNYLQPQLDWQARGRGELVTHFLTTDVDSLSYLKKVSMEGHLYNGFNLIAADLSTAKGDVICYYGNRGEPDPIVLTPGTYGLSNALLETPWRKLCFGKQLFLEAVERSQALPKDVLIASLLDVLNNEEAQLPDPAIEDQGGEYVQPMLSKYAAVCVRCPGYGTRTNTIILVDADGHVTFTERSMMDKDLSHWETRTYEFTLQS
UniProt Q9H2K8: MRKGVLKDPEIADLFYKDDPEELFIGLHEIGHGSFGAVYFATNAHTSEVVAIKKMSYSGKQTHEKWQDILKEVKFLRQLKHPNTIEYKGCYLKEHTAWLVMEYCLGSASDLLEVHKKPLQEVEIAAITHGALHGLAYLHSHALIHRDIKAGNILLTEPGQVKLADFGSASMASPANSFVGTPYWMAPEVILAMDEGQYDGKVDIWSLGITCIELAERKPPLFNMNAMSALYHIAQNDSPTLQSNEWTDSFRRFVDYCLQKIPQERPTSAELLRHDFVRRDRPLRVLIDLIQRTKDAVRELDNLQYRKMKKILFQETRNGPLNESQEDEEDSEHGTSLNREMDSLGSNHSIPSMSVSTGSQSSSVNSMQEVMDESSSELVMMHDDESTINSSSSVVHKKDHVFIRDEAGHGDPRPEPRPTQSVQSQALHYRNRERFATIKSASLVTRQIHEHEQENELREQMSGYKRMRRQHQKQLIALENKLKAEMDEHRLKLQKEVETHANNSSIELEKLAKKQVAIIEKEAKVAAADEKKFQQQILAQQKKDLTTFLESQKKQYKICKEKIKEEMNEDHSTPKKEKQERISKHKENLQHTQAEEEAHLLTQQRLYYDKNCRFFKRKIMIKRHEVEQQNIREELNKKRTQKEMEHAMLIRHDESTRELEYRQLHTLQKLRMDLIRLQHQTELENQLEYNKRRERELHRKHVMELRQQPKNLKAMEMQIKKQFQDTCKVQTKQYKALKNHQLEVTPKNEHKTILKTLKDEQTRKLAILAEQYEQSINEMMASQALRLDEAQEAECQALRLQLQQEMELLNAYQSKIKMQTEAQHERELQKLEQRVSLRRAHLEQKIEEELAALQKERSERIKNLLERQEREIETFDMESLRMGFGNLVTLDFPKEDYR
UniProt Q15170: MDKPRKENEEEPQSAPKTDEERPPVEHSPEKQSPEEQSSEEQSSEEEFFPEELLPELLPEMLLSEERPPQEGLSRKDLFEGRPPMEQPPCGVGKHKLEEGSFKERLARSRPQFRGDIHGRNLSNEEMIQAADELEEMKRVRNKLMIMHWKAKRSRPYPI
UniProt Q8NFU7: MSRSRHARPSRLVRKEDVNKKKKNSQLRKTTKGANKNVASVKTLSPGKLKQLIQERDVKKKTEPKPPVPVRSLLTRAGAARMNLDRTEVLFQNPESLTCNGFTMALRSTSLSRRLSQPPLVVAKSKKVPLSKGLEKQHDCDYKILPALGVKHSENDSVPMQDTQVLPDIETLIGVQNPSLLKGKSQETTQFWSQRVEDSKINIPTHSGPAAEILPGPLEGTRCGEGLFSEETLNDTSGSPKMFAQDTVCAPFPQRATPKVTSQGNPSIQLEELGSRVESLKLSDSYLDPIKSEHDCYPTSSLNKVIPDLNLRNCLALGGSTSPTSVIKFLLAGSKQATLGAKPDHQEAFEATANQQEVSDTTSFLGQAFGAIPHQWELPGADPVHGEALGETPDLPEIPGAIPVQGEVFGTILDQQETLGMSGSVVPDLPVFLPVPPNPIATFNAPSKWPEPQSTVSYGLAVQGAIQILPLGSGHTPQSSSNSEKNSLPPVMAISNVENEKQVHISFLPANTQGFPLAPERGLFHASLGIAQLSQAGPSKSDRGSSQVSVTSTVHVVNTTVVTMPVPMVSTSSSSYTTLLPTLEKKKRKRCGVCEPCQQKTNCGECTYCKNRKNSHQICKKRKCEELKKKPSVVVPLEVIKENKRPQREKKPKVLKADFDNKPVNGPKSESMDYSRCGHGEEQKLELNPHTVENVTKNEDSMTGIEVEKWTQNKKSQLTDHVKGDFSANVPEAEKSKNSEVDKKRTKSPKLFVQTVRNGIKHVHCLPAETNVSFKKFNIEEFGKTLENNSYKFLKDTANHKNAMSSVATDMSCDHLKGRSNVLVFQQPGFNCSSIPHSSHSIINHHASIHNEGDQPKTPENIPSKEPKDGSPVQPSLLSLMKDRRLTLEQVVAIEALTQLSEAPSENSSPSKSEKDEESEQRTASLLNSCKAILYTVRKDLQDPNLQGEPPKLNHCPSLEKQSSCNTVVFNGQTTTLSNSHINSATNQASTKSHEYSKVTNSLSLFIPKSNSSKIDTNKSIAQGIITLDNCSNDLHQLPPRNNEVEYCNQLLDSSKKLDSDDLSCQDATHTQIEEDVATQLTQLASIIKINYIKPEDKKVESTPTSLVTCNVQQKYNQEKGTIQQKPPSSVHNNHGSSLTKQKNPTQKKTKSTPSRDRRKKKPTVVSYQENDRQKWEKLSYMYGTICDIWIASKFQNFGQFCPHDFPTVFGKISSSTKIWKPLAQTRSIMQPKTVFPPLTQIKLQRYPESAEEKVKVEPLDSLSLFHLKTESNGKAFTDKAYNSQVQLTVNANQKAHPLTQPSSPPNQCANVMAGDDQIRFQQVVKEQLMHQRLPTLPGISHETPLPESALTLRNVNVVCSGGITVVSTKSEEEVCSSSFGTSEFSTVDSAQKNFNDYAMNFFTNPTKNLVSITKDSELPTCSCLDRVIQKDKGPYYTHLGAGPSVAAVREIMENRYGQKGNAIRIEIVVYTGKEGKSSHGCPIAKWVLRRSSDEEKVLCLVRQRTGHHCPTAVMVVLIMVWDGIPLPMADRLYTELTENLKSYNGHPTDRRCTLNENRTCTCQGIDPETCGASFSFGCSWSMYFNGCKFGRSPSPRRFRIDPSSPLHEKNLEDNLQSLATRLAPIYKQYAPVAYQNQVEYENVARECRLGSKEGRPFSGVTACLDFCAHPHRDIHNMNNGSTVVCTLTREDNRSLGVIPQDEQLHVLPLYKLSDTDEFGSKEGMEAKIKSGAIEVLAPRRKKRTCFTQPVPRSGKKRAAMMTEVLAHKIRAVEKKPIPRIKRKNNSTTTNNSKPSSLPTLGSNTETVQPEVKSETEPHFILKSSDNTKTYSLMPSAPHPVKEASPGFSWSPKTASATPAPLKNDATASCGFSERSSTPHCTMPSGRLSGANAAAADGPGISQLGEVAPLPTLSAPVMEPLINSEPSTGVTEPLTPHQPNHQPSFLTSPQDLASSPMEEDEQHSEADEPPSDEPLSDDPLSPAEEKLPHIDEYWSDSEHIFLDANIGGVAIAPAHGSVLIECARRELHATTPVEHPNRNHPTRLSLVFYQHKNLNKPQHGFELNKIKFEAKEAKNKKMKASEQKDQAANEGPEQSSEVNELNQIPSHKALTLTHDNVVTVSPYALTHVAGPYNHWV
UniProt Q9BTW9: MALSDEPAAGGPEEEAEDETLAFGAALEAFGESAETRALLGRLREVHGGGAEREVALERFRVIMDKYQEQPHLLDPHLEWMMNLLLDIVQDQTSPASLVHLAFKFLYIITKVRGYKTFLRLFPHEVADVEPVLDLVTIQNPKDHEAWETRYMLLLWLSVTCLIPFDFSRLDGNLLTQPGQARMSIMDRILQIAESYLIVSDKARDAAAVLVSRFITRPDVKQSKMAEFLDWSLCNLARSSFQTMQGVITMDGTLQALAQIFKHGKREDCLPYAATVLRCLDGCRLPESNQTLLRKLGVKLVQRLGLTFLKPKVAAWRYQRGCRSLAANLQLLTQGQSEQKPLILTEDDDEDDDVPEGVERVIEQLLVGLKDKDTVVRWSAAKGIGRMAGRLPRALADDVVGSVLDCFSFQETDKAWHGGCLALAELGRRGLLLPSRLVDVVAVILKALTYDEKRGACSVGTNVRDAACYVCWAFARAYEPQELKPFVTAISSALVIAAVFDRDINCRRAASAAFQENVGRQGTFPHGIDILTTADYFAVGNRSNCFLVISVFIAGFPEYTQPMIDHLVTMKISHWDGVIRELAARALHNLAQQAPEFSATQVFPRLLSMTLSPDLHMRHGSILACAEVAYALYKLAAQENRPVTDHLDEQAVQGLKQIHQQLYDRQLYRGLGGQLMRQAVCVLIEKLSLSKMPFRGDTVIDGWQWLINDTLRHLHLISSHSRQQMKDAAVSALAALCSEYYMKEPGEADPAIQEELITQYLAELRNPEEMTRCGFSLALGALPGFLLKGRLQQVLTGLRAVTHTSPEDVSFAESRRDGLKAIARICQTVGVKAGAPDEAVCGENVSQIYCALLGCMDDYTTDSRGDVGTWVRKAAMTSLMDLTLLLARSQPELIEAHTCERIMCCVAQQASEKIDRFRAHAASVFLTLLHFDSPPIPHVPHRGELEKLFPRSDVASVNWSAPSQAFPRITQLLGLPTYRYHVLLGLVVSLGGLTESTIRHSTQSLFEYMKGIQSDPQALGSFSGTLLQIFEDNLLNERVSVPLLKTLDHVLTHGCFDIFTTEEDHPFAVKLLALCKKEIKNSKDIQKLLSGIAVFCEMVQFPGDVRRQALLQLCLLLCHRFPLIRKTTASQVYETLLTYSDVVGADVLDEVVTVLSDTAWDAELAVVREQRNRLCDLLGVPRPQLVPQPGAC
UniProt O60907: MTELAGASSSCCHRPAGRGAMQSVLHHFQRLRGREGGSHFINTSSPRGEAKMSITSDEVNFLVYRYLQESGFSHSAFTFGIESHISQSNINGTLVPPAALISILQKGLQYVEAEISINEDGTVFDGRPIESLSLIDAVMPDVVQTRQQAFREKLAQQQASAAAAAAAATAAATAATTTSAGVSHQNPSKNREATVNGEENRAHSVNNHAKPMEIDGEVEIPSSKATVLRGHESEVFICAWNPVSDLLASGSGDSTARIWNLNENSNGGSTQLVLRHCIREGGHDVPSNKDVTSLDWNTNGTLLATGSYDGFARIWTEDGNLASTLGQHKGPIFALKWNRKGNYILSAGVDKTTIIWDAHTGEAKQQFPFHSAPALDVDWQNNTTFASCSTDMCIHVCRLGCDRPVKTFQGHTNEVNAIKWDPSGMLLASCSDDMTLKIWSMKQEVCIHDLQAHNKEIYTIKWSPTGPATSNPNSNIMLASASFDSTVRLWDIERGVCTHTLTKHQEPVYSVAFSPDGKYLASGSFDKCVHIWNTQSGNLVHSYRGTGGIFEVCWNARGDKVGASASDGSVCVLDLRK
UniProt Q9NYB0: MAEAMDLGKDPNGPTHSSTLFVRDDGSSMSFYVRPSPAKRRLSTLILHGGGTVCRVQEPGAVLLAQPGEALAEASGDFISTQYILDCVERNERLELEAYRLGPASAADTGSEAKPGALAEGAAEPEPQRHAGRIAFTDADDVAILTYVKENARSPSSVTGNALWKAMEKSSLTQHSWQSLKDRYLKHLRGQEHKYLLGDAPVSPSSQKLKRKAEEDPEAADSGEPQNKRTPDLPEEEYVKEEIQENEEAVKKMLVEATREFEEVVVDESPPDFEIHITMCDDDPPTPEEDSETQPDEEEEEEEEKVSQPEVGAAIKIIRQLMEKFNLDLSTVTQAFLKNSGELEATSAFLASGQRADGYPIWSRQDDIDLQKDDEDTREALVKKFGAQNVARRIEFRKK
UniProt Q5JUR7: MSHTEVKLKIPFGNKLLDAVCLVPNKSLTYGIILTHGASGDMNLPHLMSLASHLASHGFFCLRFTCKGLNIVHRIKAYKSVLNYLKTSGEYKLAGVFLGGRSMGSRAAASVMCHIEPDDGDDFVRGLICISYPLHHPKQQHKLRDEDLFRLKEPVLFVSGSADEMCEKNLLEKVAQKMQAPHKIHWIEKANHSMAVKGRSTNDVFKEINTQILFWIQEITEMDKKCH
UniProt Q9BT92: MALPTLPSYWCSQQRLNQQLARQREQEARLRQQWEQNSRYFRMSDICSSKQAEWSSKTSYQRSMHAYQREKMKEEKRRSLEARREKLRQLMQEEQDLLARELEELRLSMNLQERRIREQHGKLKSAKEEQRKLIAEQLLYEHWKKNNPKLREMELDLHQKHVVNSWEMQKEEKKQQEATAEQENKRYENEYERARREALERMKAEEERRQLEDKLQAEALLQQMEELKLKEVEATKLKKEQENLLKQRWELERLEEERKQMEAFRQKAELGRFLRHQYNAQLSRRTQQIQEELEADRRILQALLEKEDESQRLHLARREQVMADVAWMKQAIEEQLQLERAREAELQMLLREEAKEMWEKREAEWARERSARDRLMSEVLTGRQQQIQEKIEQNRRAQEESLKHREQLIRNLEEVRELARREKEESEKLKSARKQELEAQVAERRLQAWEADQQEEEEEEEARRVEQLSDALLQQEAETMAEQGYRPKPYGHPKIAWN

How the values were obtained:
Test in all cases: log2 fold change, soluble protein after heating vs DMSO (PISA); higher = thermal stabilisation; K562 lysate, 10 uM; active = over 0.2 and 3.5 SD of the protein, either way, in both replicates (recomputed)
[1] = compound: C1=CC=C(C=C1)[C@H](COC2=CC3=C(C=C2)NC(=O)N3)NC(=O)C4=CC=CN(C4=O)CC5=CC(=C(C=C5)F)F
Method in brief: (§1)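 Following dounce homogenisation of K562 pellets in PBS pH 7.4 with 1 mM MgCl2, crude extract at 1 mg/mL protein was incubated for 30 min with 10 μM compound. Aliquots were then heated for 3 min over 48°C-58°C and pooled, NP-40 was added to 0.5% at 4°C, and soluble protein was recovered as the supernatant at 21,000xg for 90 min. Channel-sum-equalised TMTpro 16plex LC-MS/MS quantified this protein. Each value, from duplicates, is a log-two fold change in thermal stability relative to solvent controls.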

[2] = compound: CC1=C(SC2=C1C(=N[C@H](C3=NN=C(N32)C)CC(=O)N)C4=CC=C(C=C4)Cl)C
Method in brief: as §1

[3] = compound: CC1=C2C(=CC=C1)N=C(N(C2=O)C3=CC=CC=C3C)CN4C=NC5=C(N=CN=C54)N
Method in brief: as §1

[4] = compound: Cc1sc2c(c1C)C(c1ccc(Cl)cc1)=N[C@@H](CC(=O)OC(C)(C)C)c1nnc(C)n1-2
Method in brief: as §1

[5] = compound: c1ccc([C@@H]2C[C@H]2NC2CCNCC2)cc1
Method in brief: as §1

Measured: log2 fold change

TAF8 isoform 2 (UniProt Q7Z7C8)
inactive: [1] 0.002 | [2] 0 | [3] 0.043 | [4] -0.028 | [5] -0.036

TALDO1 (UniProt P37837)
inactive: [1] 0.002 | [2] 0.012 | [3] -0.024 | [4] 0.037 | [5] 0.037

TANGO2 isoform 4 (UniProt Q6ICL3)
inactive: [1] 0.078 | [2] 0 | [3] -0.022 | [4] -0.017 | [5] 0.058

TDP1 (UniProt Q9NUW8)
inactive: [1] -0.008 | [2] 0.018 | [3] 0 | [4] -0.066 | [5] 0.024

TAX1BP1 isoform 2 (UniProt Q86VP1)
inactive: [1] -0.142 | [2] -0.026

TAOK3 (UniProt Q9H2K8)
inactive: [1] -0.006 | [2] -0.013 | [3] -0.001 | [4] -0.057 | [5] 0.092

TCEAL1 isoform 2 (UniProt Q15170)
inactive: [1] 0.309 | [2] -0.12 | [3] 0.05

TET1 (UniProt Q8NFU7)
inactive: [1] -0.038 | [2] 0.072 | [3] 0.002 | [4] -0.148 | [5] -0.454

TDRD3 isoform 3 (UniProt Q9H7E2)
inactive: [1] 0.082 | [2] 0.037 | [3] 0.027 | [4] 0.065 | [5] -0.01

TBL2 (UniProt Q9Y4P3)
inactive: [1] 0.01 | [2] 0.057 | [3] 0.033 | [4] 0.039 | [5] 0.071

TFE3 (UniProt P19532)
inactive: [1] -0.069 | [2] -0.021 | [3] 0.067 | [4] -0.051 | [5] -0.034

TBCEL (UniProt Q5QJ74)
inactive: [1] -0.23 | [2] -0.052 | [3] -0.013 | [4] -0.023 | [5] -0.165

Pulled one by one from the entries so far (two):
TFE3 (UniProt P19532)
inactive: [1] -0.069 | [2] -0.021 | [3] 0.067 | [4] -0.051 | [5] -0.034

TAOK3 (UniProt Q9H2K8)
inactive: [1] -0.006 | [2] -0.013 | [3] -0.001 | [4] -0.057 | [5] 0.092

Remaining list, next part.

TATDN1 isoform 2 (UniProt Q6P1N9)
inactive: [1] -0.09 | [2] 0.072 | [3] 0.128

TBC1D13 (UniProt Q9NVG8)
inactive: [1] 0.016 | [2] -0.018 | [3] -0.008 | [4] -0.045 | [5] -0.044

TELO2 (UniProt Q9Y4R8)
inactive: [1] -0.073 | [2] -0.012 | [3] -0.019 | [4] 0.056 | [5] 0.025

TBCD (UniProt Q9BTW9)
inactive: [1] -0.028 | [2] 0.025 | [3] 0.034 | [4] -0.013 | [5] -0.005

TBC1D23 (UniProt Q9NUY8)
inactive: [1] 0.007 | [2] 0.01 | [3] -0.017 | [4] 0.016 | [5] -0.024

TBL1X (UniProt O60907)
inactive: [1] 0.024 | [2] 0.001 | [3] -0.002 | [4] 0.044 | [5] -0.018

TFDP2 (UniProt Q14188)
inactive: [1] -0.101 | [2] -0.179 | [3] 0.143 | [4] -0.117

TERF2IP (UniProt Q9NYB0)
inactive: [1] 0.023 | [2] -0.006 | [3] -0.077 | [4] -0.03 | [5] 0.116

TEX30 (UniProt Q5JUR7)
inactive: [1] -0.074 | [2] 0.066 | [3] -0.006 | [4] -0.1 | [5] -0.038

TAF9 (UniProt Q16594)
inactive: [1] 0.04 | [2] -0.004 | [3] 0.05 | [4] 0.019 | [5] 0.021

TCHP (UniProt Q9BT92)
inactive: [1] 0.151 | [2] -0.032 | [3] -0.051 | [4] 0.015 | [5] -0.007

TARBP1 (UniProt Q13395)
inactive: [1] -0.108 | [2] -0.025 | [3] 0.112 | [4] 0.016 | [5] 0.053

TCF3 (UniProt P15923)
inactive: [1] -0.029 | [2] 0.006 | [3] -0.004 | [4] -0.032 | [5] -0.08
